Source: patent publication US10512667B2, “Compositions and methods for treating conditions related to adrenocortical activity and/or excessive steroid production” (The Regents of the University of Michigan, priority 2017, dated 2019)
“Also recorded” adds a separate entry of the source. For at least one compound, name, drawing or mass did not settle the structure. Some of these results come from one statement about several compounds together.

Columns and labels:
[1] = tested on: H295R cells; assay: Cholesterol efflux into serum-free medium with apoA1; type: cell-based; details: 4 h
Protocol: Cholesterol efflux was measured by replacing the culture medium with serum-free medium supplemented with 5 μg/ml apoA1 (Sigma) and the indicated compounds. After the indicated time, the serum-free medium was collected, and the cholesterol concentration was measured using the fluorometric enzyme-linked assay (Cayman Chemical).
After 48 h, the medium was removed and replaced with 50 μl serum-free medium supplemented with 5 μg/mL apoA1. After the indicated time, the supernatant containing the effluxed cholesterol, was transferred to a new 96-well plate. A cholesterol detection reagent (Cayman Chemical) consisting of cholesterol assay buffer, cholesterol assay detector (10-acetyl-3,7-dihydroxyphenoxazine [ADHP]), horseradish peroxidase, cholesterol oxidase, and cholesterol esterase was added, and the reactions were incubated for 30 min at 37 C. The fluorescence intensities were measured using ex. […] 590 nm. The cholesterol concentrations were calculated by interpolation between the values produced by cholesterol standards that were analyzed in parallel.

[2] = tested on: H295R cells; assay: Cellular ATP level (CellTiter-Glo); details: 4 h;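 also: ATP quantified by luminescence after lysing the cells in CellTiter-Glo reagent, with compound exposure at 37 °C under 5% CO2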
[3] = tested on: H295R cells; assay: Cortisol secretion (indirect ELISA); type: cell-based; details: cortisol in medium, 4 h or time course
Protocol: Cortisol secretion was measured by replacing the culture medium with fresh medium containing the indicated compounds. The medium was collected at the indicated times. The cortisol concentration in the medium was measured using indirect ELISA (Arbor Assays).
After 48 h, the medium was removed and replaced with 50 μl of fresh medium. After the indicated incubation time, aliquots of the supernatant ranging from 0.5 to 10 μl were diluted in 50 μl of medium were used to measure the amount of cortisol secreted. Cortisol detection and quantification were performed by indirect ELISA according to the manufacturer's protocol (Arbor Assays #K003).

Compound | cholesterol efflux, compound alone ([1]; serum-free medium containing apoA-I) | concentrations that inhibited cholesterol efflux and caused ATP depletion separately, relative to concentrations required to inhibit MDR1 and ABCG1, respectively ([1]; serum-free medium) [fold] | ATP level in combination with ATR-101 versus separately ([2]; compound together with ATR-101 at concentrations not cytotoxic separately) | ATP level, compound alone ([2]; serum-free medium) | cortisol secretion, compound alone [3] | ATP level, compound alone ([2]; serum-containing medium)
NC(=NCc1ccccc1)NC(=O)c1nc(Cl)c(N)nc1N [benzamil] | did not reduce cholesterol efflux | 10 to 100 | larger than additive reductions in the ATP levels; also recorded: caused ATP depletion at concentrations that did not deplete ATP individually | did not reduce the ATP levels |  | 
C=C[C@@]1(C)CC(=O)[C@]2(O)[C@@]3(C)[C@@H](O)CCC(C)(C)[C@@H]3[C@H](O)[C@H](OC(C)=O)[C@@]2(C)O1 [forskolin] |  |  |  |  | increased | 
O[C@@H](COc1cccc2ncccc12)CN1CCN([C@@H]2c3ccccc3[C@@H]3[C@H](c4ccccc42)C3(F)F)CC1 [zosuquidar] |  |  |  |  | inhibited cortisol secretion | did not cause ATP depletion
